# Assay results

Data taken from PubChem BioAssay AID1159506, deposited by NCATS (2015).

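Genome-wide siRNA knockdown in TC32 Ewing sarcoma cells, comparing luciferase light from an NR0B1-promoter reporter with a CMV-promoter reporter 48 hours after transfection. Each siRNA was applied at 20 nM. A z-score of the log NR0B1-over-CMV signal, less the median of siRNAs with the same seed; more negative means a stronger specific loss of the NR0B1 reporter.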

This is part of the screen; most of the strongest results are not listed here. Sequences are the guide (antisense) strand, without overhang.

| # | strand | gene | seed-corrected z-score |
|---|---|---|---|
| 1 | `UAUCUUCUCCCUUAUAUGG` | ZNF200 | -0.8679 |
| 2 | `AUCUCAGCCAGACUAAUUC` | NMD3P1 | 0.4805 |
| 3 | `UGAGAAGCCGUUGGAGUCC` | SYT3 | 0.4415 |
| 4 | `UUUCUGGUCAAUCUCUAGC` | NUDC | -0.36 |
| 5 | `UUAAGUACUUCUUUUGGUC` | MTMR6 | -1.331 |
| 6 | `AAUAUUUUGAGGAAUCUUG` | RPS14 | 0.1168 |
| 7 | `UAUAAGAUCAUGUGGUCCA` | WNT10A | -0.2939 |
| 8 | `UUCCGUGUUAUCCCUAAUG` | NLRP2 | 0.5416 |
| 9 | `UUGAGAAACAUGUCGAUCU` | ZBED1 | -0.1709 |
| 10 | `UUCUUUGACUGCUCAAUGG` | TEPP | -0.008011 |
| 11 | `AAAGUUGUGACGGAGAACC` | C1QL4 | 0.5712 |
| 12 | `UAGGCCUUCACGAUGCCUG` | AIPL1 | 0.1329 |
| 13 | `UGAGCUAUAGGCAAAGAGC` | RBL1 | 0.005427 |
| 14 | `UUUGCGGAUGUCAUGAAGC` | CTSL3P | -0.7825 |
| 15 | `ACAGUGGUCACUAUGUAGC` | OR6V1 | -1.805 |
| 16 | `UAUGGGUACAGUGUCACCA` | ABI3 | -0.2215 |
| 17 | `UAUGACAAGACAAUCAACC` | OR5I1 | -0.5837 |
| 18 | `UUCCAUCUAAUUCCUUCUG` | COX8C | -0.9657 |
| 19 | `UGUUUCUUCUUAAUCGCUG` | SH3BGRL | -0.2165 |
| 20 | `UUAAUAUGAUCGUUGUUCU` | SUMO2 | -0.07198 |
| 21 | `UAUGUCAAUCAUGAUUUGC` | IFNGR1 | -0.128 |
| 22 | `AAAAUAGUCCUUAUACUUC` | MAGEC3 | 0.5649 |
| 23 | `UCAGGUUCUUCCUGUAGGU` | ZSCAN5D | -0.586 |
| 24 | `UUGAGGACGAAAUCUUUUC` | FOXF2 | 0.3204 |
| 25 | `AAGCGUACCAUACCAAGGG` | SERPINB12 | 0.004243 |
| 26 | `UUCAUAUUCCCGUUUGUUC` | UBE2A | 0.7182 |
| 27 | `UUCAUAUGGAAAGCUAUUC` | ZBBX | 0.2362 |
| 28 | `UCAUGUACCGGGAUCUCUG` | SEC24C | 0.3681 |
| 29 | `AAAGAUACCUCCUUCAUAC` | UMPS | 0.424 |
| 30 | `UUUGUUUUCACAUCCAGUU` | VDAC2 | 0.1436 |
| 31 | `AGUUUGACCAAGACAGCUU` | OR1L6 | 0.01088 |
| 32 | `UCCAGGUUGACUCCAUUCG` | KDM2A | 0.9936 |
| 33 | `UUCUUGAUCAGGUUCUGAG` | ARHGEF37 | -0.9593 |
| 34 | `UUCAUGAGCAACCACGAGC` | TTC28 | 2.193 |
| 35 | `AAUUCGAUAACCAUUGAUC` | COL14A1 | -1.834 |
| 36 | `UCCUUCUCUAGGGUAUUGC` | SMAP2 | 0.4025 |
| 37 | `UAAUCUUCUCUUGAAUCAG` | SMARCAL1 | -0.7636 |
| 38 | `AUACUUUCGAUAGCACAUG` | TCEB1 | 0.1456 |
| 39 | `UUGUAUACCAUUCUCGUUG` | SMARCA1 | -0.07208 |
| 40 | `UCUAUUAUGACAGUUCUUG` | LINC00668 | 0.4233 |
| 41 | `UGUCUGAUCAGUUUUAUGA` | PSTK | -0.2396 |
| 42 | `UGUGGUCUCACACAUGUAG` | FAM69B | -1.157 |
| 43 | `UGUUUGUCUGGGUGAGUUC` | CREB5 | -1.367 |
| 44 | `UUGAGGAAAAUAGAUGAAG` | HMCES | 0.5845 |
| 45 | `UUCGUAUUCAACCUGGUUC` | BICD1 | 0.6795 |
| 46 | `UUCUUAUCCACUGCAGCCC` | LMOD1 | 1.351 |
| 47 | `UGUUGUUCCCGGUCUAAGG` | PCDHGB5 | 1.736 |
| 48 | `UCCUUUAUCUGCGCCUCCC` | ASPSCR1 | -0.7391 |
| 49 | `UGCUAUUCCAAAGUACUCC` | FRMD4A | -0.198 |
| 50 | `UCAGGGCUCAUUCUGUGGG` | C3orf70 | -0.4525 |
| 51 | `UAUCCUUCCAUAACUAUGC` | ACAP2 | -0.4395 |
| 52 | `UGAAUAUCAGUGCAGUCUC` | OR10X1 | 0.5434 |
| 53 | `UUGGUGUAAACUUUCCUGC` | KLF6 | 0.1774 |
| 54 | `UUCAUAAUAACCAUGUAUC` | OR10J1 | 0.8501 |
| 55 | `UUAGUAUCAGACAGGUCCA` | RDH11 | 0.9553 |
| 56 | `AUACCAAUCACUUUAGGAG` | HSPA13 | 1.068 |
| 57 | `UCAGUUUAAAAUCGUUUCC` | CENPL | -0.04584 |
| 58 | `UUAGGUUGACAAUCUUAGG` | SMCHD1 | 0.9582 |
| 59 | `UAGAUUAGCAUAAUCAUCC` | GGPS1 | -0.2819 |
| 60 | `UUCCGGUUGAAGAAGGUUC` | UQCC1 | 0.3715 |
| 61 | `UUUCUAGAUACUUAGGGUG` | TSEN15 | -0.3606 |
| 62 | `UAUUAUUCUCAAUUUGACC` | COA3 | -0.2851 |
| 63 | `UUAUUGGAAAGGUUAAGAC` | PHLPP1 | 1.033 |
| 64 | `UCUGUAGUUAGGUAAAGCA` | SEMA7A | 0.2948 |
| 65 | `UGUUCUUUAUGGUCAAGCC` | IGF2BP2 | -0.5808 |
| 66 | `UAAUUAGGUCGAUUUGGUG` | RPS12P4 | 0.02973 |
| 67 | `UAAUCUGUUAGUAGCACAC` | ATPIF1 | -0.9224 |
| 68 | `UGCAUGUCCAAAUAGUAGC` | PIGS | -0.6343 |
| 69 | `UAGGACACGUUGUAGUUGC` | PTX4 | 1.547 |
| 70 | `UCUGGGUUCGUAACUCUUU` | FAM183BP | 0.994 |
| 71 | `UGUCCCUUUAAGUUUGUUG` | DEFB106A | 0.3181 |
| 72 | `UCCCAAUUCGCAGCUGUCC` | LOC401068 | 0.1397 |
| 73 | `UAAAGGGUACGGUUGGAGU` | PPT2 | 0.0674 |
| 74 | `UUCUCGUACAGCAUUGCCU` | PABPC1L2B | 0.9789 |
| 75 | `UAAGUUGGUCGAGGAAUGC` | IGSF11 | 0.7946 |
| 76 | `UUCUUUGACAUCUUUUCGC` | GNAT2 | 0.6652 |
| 77 | `UCUAUGAUCUCGGACACUG` | ACSBG1 | -0.8655 |
| 78 | `UUCAGGACAGUGAUCAUCC` | MROH2B | 0.4262 |
| 79 | `UGUAGUAAUCUGAAUUGGG` | POLN | 0.8669 |
| 80 | `UCUGAUAUCAUUAUCUCGC` | TCP11L2 | 0.0984 |
| 81 | `UAGCGGCCGAGAAACAAUG` | ARIH2OS | 1.54 |
| 82 | `UAGAGAUUGUAUACAGUCC` | DCAF8L1 | 0.9709 |
| 83 | `UCUGAUCAGAGACUUGAAC` | PYDC2 | 0.4481 |

Repeated from the top, 7 entries:

strand	gene	seed-corrected z-score
UAUCUUCUCCCUUAUAUGG	ZNF200	-0.8679
AUCUCAGCCAGACUAAUUC	NMD3P1	0.4805
UGAGAAGCCGUUGGAGUCC	SYT3	0.4415
UUUCUGGUCAAUCUCUAGC	NUDC	-0.36
UUAAGUACUUCUUUUGGUC	MTMR6	-1.331
AAUAUUUUGAGGAAUCUUG	RPS14	0.1168
UAUAAGAUCAUGUGGUCCA	WNT10A	-0.2939